Measurements as given in paper PMC11264595.
These are yes or no findings as the source states them, for the method shown. Binding seen in cells or lysates may run through a third protein.

The chains behind the UniProt entries cited, without tags or fusion partners.
UniProt P22363: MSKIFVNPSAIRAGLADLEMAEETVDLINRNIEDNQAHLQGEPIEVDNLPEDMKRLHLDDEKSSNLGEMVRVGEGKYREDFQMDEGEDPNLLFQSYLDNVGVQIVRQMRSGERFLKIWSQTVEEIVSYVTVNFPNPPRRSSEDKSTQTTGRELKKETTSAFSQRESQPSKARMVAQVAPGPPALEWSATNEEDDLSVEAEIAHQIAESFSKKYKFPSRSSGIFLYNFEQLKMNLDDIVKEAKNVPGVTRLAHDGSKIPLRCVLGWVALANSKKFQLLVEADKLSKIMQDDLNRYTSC
UniProt P61586: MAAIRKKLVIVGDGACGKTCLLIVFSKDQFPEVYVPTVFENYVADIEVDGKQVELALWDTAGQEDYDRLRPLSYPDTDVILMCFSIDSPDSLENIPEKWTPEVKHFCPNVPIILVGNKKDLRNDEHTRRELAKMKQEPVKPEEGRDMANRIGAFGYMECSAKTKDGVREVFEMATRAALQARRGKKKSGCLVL
UniProt P60953: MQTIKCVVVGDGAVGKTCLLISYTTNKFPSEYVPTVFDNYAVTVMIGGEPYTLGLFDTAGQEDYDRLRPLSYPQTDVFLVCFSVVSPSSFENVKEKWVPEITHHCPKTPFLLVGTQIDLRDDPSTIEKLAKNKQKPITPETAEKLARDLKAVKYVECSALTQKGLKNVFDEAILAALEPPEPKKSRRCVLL

Target: Flag-tagged RABV phosphoprotein (P), full length (rabies virus) (UniProt P22363)
Assay: co-IP

Substance	binding
GFP-RhoA wild type (Transforming protein RhoA) (from UniProt P61586 1-193)	no binding
GFP-Cdc42 wild type (Cell division control protein 42 homolog) (from UniProt P60953 1-191)	no binding
